Data taken from patent US20230406948A1.

Experiments:
[1] = biological target: monkey CD40 (monkey); experiment: direct ELISA (legend of FIGS. 11A and 11B)
[2] = biological target: monkey CD40 (monkey); experiment: direct ELISA according to paragraph 284 (1 ug/ml monkey CD40 coated, 1 ug/ml antibody, goat anti-human IgG-HRP); y axis of the sheet reads MFI
[3] = biological target: monkey CD40 (monkey); experiment: direct ELISA, CD40 coated at 1 µg/ml, APX005 at 1 µg/ml
[4] = biological target: monkey CD40 (monkey); experiment: direct ELISA (summary of Example 2)

Measured: binding

B1: APX005, humanized version of the R-8 rabbit anti-CD40 antibody (antibody, IgG1, V domains shown)
VH: QVQLVESGGGVVQPGRSLRLSCAASGFSFSSTYVCWVRQAPGKGLEWIACIYTGDGTNYSASWAKGRFTISKDSSKNTVYLQMNSLRAEDTAVYFCARPDITYGFAINFWGPGTLVTVSS
VL: DIQMTQSPSSLSASVGDRVTIKCQASQSISSRLAWYQQKPGKPPKLLIYRASTLASGVPSRFSGSGSGTDFTLTISSLQPEDVATYYCQCTGYGISWPIGGGTKVEIK
binds: all assays above

These are yes or no findings as the source states them, for the method shown. Binding calls can cover weak binding; strength is not graded here.
